The values that follow come from ChEMBL document CHEMBL2321763, “The role of the acidity of N-heteroaryl sulfonamides as inhibitors of bcl-2 family protein-protein interactions” (ACS Med Chem Lett, 2013).

The series in a line: Solubility of compound in fasted state simulated intestinal fluid. The settings on record: simulated gi fluid.

Usually solubility stands for how much of the substance goes into solution per volume. Higher therefore signals much dissolved substance. `O=[N+]([O-])c1cc(S(=O)(=O)Nc2cccc3cc(N4CCN(Cc5ccccc5-c5ccc(Cl)cc5)CC4)ccc23)ccc1N[C@H](CCN1CCOCC1)CSc1ccccc1` gave a solubility below 5 µM.
